These are yes or no findings as the source states them, for the method shown. In cells and extracts the contact can be indirect. Some entries that bind do so weakly or less than the wild type.
Experiments:
Flag-NR4A1 = Flag-NR4A1 (UniProt P22736); assay: co-IP; HEK293T cells transfected for 24 h with Flag-NR4A1 or HA-c-Fos alone or in combination; lysates (20 mM Tris-Cl pH 7.4, 1% Triton X-100, 1% sodium deoxycholate, 150 mM NaCl, 1 mM EDTA) immunoprecipitated with Flag or HA antibodies, protein A-agarose, 4 °C; western blot
[1] = target: NR4A1 (human (endogenous in MCF7)) (UniProt P22736); assay: co-IP; MCF7 cells treated with 10 uM Csn-B or vehicle for 24 h; endogenous proteins; 500 ug lysate with 2 ug antibody overnight at 4 °C, protein A-agarose; western blot

Chains of the proteins cited; added tags and fusions are not shown.
UniProt P22736: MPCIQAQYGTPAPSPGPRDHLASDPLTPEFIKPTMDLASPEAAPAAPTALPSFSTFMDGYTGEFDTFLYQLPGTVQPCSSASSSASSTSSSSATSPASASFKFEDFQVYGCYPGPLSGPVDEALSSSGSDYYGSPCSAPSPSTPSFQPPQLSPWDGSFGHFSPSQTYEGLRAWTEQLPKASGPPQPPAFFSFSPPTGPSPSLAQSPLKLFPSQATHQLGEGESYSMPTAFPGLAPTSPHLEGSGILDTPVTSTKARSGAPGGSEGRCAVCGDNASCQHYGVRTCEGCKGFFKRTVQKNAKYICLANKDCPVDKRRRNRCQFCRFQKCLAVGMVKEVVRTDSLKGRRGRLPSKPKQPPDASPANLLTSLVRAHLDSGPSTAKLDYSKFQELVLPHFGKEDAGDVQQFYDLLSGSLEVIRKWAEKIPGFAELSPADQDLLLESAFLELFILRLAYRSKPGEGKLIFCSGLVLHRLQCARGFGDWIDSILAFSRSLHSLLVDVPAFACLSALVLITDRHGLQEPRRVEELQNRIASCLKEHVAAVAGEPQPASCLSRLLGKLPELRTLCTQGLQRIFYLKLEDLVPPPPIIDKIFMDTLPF
UniProt P01100: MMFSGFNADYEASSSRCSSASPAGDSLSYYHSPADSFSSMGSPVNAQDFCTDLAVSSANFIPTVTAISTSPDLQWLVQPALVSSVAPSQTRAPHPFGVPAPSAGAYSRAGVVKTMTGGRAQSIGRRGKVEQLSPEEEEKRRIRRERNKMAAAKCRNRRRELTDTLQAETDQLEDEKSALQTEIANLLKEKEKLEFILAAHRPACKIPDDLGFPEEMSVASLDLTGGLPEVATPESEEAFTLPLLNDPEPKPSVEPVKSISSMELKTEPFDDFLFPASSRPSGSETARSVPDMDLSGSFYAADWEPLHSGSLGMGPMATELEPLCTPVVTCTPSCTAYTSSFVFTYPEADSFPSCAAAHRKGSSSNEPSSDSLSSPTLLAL

Row | binding (Flag-NR4A1) | binding [1] | Substance
1 | binds |  | HA-c-Fos (from UniProt P01100 1-380)
2 |  | binds | c-Fos (from UniProt P01100 1-380)
